{
  "source": "paper PMC5836524",
  "binders": {"B1": {"name": "EGFP-Numb (protein, UniProt P49757 1-651)", "chain": "MNKLRQSFRRKKDVYVPEASRPHQWQTDEEGVRTGKCSFPVKYLGHVEVDESRGMHICEDAVKRLKAERKFFKGFFGKTGKKAVKAVLWVSADGLRVVDEKTKDLIVDQTIEKVSFCAPDRNFDRAFSYICRDGTTRRWICHCFMAVKDTGERLSHAVGCAFAACLERKQKREKECGVTATFDASRTTFTREGSFRVTTATEQAEREEIMKQMQDAKKAETDKIVVGSSVAPGNTAPSPSSPTSPTSDATTSLEMNNPHAIPRRHAPIEQLARQGSFRGFPALSQKMSPFKRQLSLRINELPSTMQRKTDFPIKNAVPEVEGEAESISSLCSQITNAFSTPEDPFSSAPMTKPVTVVAPQSPTFQANGTDSAFHVLAKPAHTALAPVAMPVRETNPWAHAPDAANKEIAATCSGTEWGQSSGAASPGLFQAGHRRTPSEADRWLEEVSKSVRAQQPQASAAPLQPVLQPPPPTAISQPASPFQGNAFLTSQPVPVGVVPALQPAFVPAQSYPVANGMPYPAPNVPVVGITPSQMVANVFGTAGHPQAAHPHQSPSLVRQQTFPHYEASSATTSPFFKPPAQHLNGSAAFNGVDDGRLASADRHTEVPTGTCPVDPFEAQWAALENKSKQRTNPSPTNPFSSDLQKTFEIEL"}},
  "biological_target": "GST-Eps15R EH2 (aa 254-362)",
  "experiment": "pull-down; GST-tagged EH domains immobilised on beads, incubated with lysates from EGFP-Numb expressing HEK293T cells; Western blot; only the target purified",
  "note": "These are yes or no findings as the source states them, for the method shown. Binding seen in cells or lysates may run through a third protein. A result given as binding can be weak or reduced; the word gives no strength. Tags and fused reporters may be left off the sequences shown.",
  "data": [
    {"binder": "B1", "values": [
      {"measurement": "binding", "value": "binds"}
    ]}
  ]
}
